# Shown are results outside the selection of hits, which stands elsewhere. Inconclusive results are not listed. Activity calls are given as the source filed them. Calls come from the whole dose curve; tested in HEK293T cells.
# Experiment: High Throughput Screening for Foot and Mouth Disease Virus Antivirals; note: read-out not given here; nearly all actives have a fitted effect of over 45% in size
# Conditions: FMDV antiviral cell-based qHTS; at 57.9 µM (top of the series)
# % is set by controls: 0 for no effect and ±100 for the full control effect.
row,SMILES,"activity change, negative = inhibition"
1,O=c1ccc2ccc(OCc3ccccc3)cc2o1,inactive: 21.1%

# Reference: PubChem BioAssay AID1159524 (National Center for Advancing Translational Sciences (NCATS), 2015)
